Experimental data as given in the supplement of paper PMC8728848.
The list shows a part of the results.

Experiments:
Experiment in all cases: glycan array binding signal (z-score within array); higher = stronger binding
Settings in all cases: glycan notation: IUPAC condensed, linker removed
[1] = molecular target: Gal(b1-3)GlcNAc(b1-6)[Gal(b1-3)]GalNAc
Outline: (§1)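 Columns mapping to the same glycan were averaged after glycan names were converted to IUPAC-condensed notation. The data come from 3228 arrays in the Consortium for Functional Glycomics database, limited to those with an available protein sequence. Binding is reported as a within-array Z-score averaged across arrays of one protein sequence and across linkers.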

Gal(b1-3)GlcNAc6S = molecular target: Gal(b1-3)GlcNAc6S
Outline: as §1

[2] = molecular target: Gal(b1-3)[Fuc(a1-4)]GlcNAc
Outline: as §1

[3] = molecular target: Gal(b1-3)[Fuc(a1-4)]GlcNAc(b1-2)Man
Outline: as §1

[4] = molecular target: Gal(b1-3)[Fuc(a1-4)]GlcNAc(b1-2)Man(a1-3)[Gal(b1-3)[Fuc(a1-4)]GlcNAc(b1-2)Man(a1-6)]Man(b1-4)GlcNAc(b1-4)[Fuc(a1-6)]GlcNAc
Outline: as §1

[5] = molecular target: Gal(b1-3)[Fuc(a1-4)]GlcNAc(b1-3)Gal(b1-3)[Fuc(a1-4)]GlcNAc
Outline: as §1

[6] = molecular target: Gal(b1-3)[Fuc(a1-4)]GlcNAc(b1-3)Gal(b1-4)[Fuc(a1-3)]GlcNAc
Outline: as §1

[7] = molecular target: Gal(b1-3)[Fuc(a1-4)]GlcNAc(b1-6)GalNAc
Outline: as §1

[8] = molecular target: Gal(b1-3)[GlcNAc(b1-6)]GalNAc
Outline: as §1

[9] = molecular target: Gal(b1-3)[Neu5Ac(a2-6)]GalNAc
Outline: as §1

[10] = molecular target: Gal(b1-3)[Neu5Ac(a2-6)]GlcNAc(b1-4)Gal(b1-4)Glc
Outline: as §1

[11] = molecular target: Gal(b1-3)[Neu5Ac(b2-6)]GalNAc
Outline: as §1

Gal(b1-4)Gal = molecular target: Gal(b1-4)Gal
Outline: as §1

[12] = molecular target: Gal(b1-4)GalNAc(a1-3)[Fuc(a1-2)]Gal(b1-4)GlcNAc
Outline: as §1

[13] = molecular target: Gal(b1-4)GalNAc(b1-3)[Fuc(a1-2)]Gal(b1-4)GlcNAc
Outline: as §1

Gal(b1-4)Glc = molecular target: Gal(b1-4)Glc
Outline: as §1

Gal(b1-4)Glc6S = molecular target: Gal(b1-4)Glc6S
Outline: as §1

Gal(b1-4)GlcNAc = molecular target: Gal(b1-4)GlcNAc
Outline: as §1

[14] = molecular target: Gal(b1-4)GlcNAc(a1-6)Gal(b1-4)GlcNAc
Outline: as §1

Gal(b1-4)GlcNAc(b1-2)Man = molecular target: Gal(b1-4)GlcNAc(b1-2)Man
Outline: as §1

[15] = molecular target: Gal(b1-4)GlcNAc(b1-2)Man(a1-3)Man(b1-4)GlcNAc(b1-4)GlcNAc
Outline: as §1

[16] = molecular target: Gal(b1-4)GlcNAc(b1-2)Man(a1-3)[Gal(b1-4)GlcNAc(b1-2)Man(a1-6)]Man(b1-4)GlcNAc(b1-4)GlcNAc
Outline: as §1

[17] = molecular target: Gal(b1-4)GlcNAc(b1-2)Man(a1-3)[Gal(b1-4)GlcNAc(b1-2)Man(a1-6)]Man(b1-4)GlcNAc(b1-4)[Fuc(a1-6)]GlcNAc
Outline: as §1

[18] = molecular target: Gal(b1-4)GlcNAc(b1-2)Man(a1-3)[Gal(b1-4)GlcNAc(b1-2)Man(a1-6)][Gal(b1-4)GlcNAc(b1-4)]Man(b1-4)GlcNAc(b1-4)[Fuc(a1-6)]GlcNAc
Outline: as §1

[19] = molecular target: Gal(b1-4)GlcNAc(b1-2)Man(a1-3)[Gal(b1-4)GlcNAc(b1-2)Man(a1-6)][GlcNAc(b1-4)]Man(b1-4)GlcNAc(b1-4)[Fuc(a1-6)]GlcNAc
Outline: as §1

[20] = molecular target: Gal(b1-4)GlcNAc(b1-2)Man(a1-3)[GlcNAc(b1-2)Man(a1-6)]Man(b1-4)GlcNAc(b1-4)GlcNAc
Outline: as §1

[21] = molecular target: Gal(b1-4)GlcNAc(b1-2)Man(a1-3)[GlcNAc(b1-4)][Gal(b1-4)GlcNAc(b1-2)Man(a1-6)]Man(b1-4)GlcNAc(b1-4)GlcNAc
Outline: as §1

[22] = molecular target: Gal(b1-4)GlcNAc(b1-2)Man(a1-3)[Man(a1-6)]Man(b1-4)GlcNAc(b1-4)GlcNAc
Outline: as §1

[23] = molecular target: Gal(b1-4)GlcNAc(b1-2)Man(a1-6)Man(b1-4)GlcNAc(b1-4)GlcNAc
Outline: as §1

[24] = molecular target: Gal(b1-4)GlcNAc(b1-2)Man(a1-6)[GlcNAc(b1-2)Man(a1-3)]Man(b1-4)GlcNAc(b1-4)GlcNAc
Outline: as §1

[25] = molecular target: Gal(b1-4)GlcNAc(b1-2)Man(a1-6)[Man(a1-3)]Man(b1-4)GlcNAc(b1-4)GlcNAc
Outline: as §1

[26] = molecular target: Gal(b1-4)GlcNAc(b1-2)[Gal(b1-4)GlcNAc(b1-4)]Man(a1-3)[Gal(b1-4)GlcNAc(b1-2)Man(a1-6)]Man(b1-4)GlcNAc(b1-4)GlcNAc
Outline: as §1

[27] = molecular target: Gal(b1-4)GlcNAc(b1-2)[Gal(b1-4)GlcNAc(b1-4)]Man(a1-3)[Gal(b1-4)GlcNAc(b1-2)[Gal(b1-4)GlcNAc(b1-6)]Man(a1-6)]Man(b1-4)GlcNAc(b1-4)GlcNAc
Outline: as §1

[28] = molecular target: Gal(b1-4)GlcNAc(b1-2)[Gal(b1-4)GlcNAc(b1-4)]Man(a1-3)[GlcNAc(b1-4)][Gal(b1-4)GlcNAc(b1-2)Man(a1-6)]Man(b1-4)GlcNAc(b1-4)GlcNAc
Outline: as §1

[29] = molecular target: Gal(b1-4)GlcNAc(b1-2)[Gal(b1-4)GlcNAc(b1-4)]Man(a1-3)[GlcNAc(b1-4)][Gal(b1-4)GlcNAc(b1-2)[Gal(b1-4)GlcNAc(b1-6)]Man(a1-6)]Man(b1-4)GlcNAc(b1-4)GlcNAc
Outline: as §1

[30] = molecular target: Gal(b1-4)GlcNAc(b1-2)[Gal(b1-4)GlcNAc(b1-6)]Man(a1-6)[Gal(b1-4)GlcNAc(b1-2)Man(a1-3)]Man(b1-4)GlcNAc(b1-4)GlcNAc
Outline: as §1

[31] = molecular target: Gal(b1-4)GlcNAc(b1-2)[Gal(b1-4)GlcNAc(b1-6)]Man(a1-6)[Gal(b1-4)GlcNAc(b1-2)Man(a1-3)]Man(b1-4)GlcNAc(b1-4)[Fuc(a1-6)]GlcNAc
Outline: as §1

[32] = molecular target: Gal(b1-4)GlcNAc(b1-2)[Gal(b1-4)GlcNAc(b1-6)]Man(a1-6)[GlcNAc(b1-4)][Gal(b1-4)GlcNAc(b1-2)Man(a1-3)]Man(b1-4)GlcNAc(b1-4)GlcNAc
Outline: as §1

[33] = molecular target: Gal(b1-4)GlcNAc(b1-2)[Gal(b1-4)GlcNAc(b1-6)]Man(a1-6)[GlcNAc(b1-4)][Gal(b1-4)GlcNAc(b1-2)[Gal(b1-4)GlcNAc(b1-4)]Man(a1-3)]Man(b1-4)GlcNAc(b1-4)[Fuc(a1-6)]GlcNAc
Outline: as §1

[34] = molecular target: Gal(b1-4)GlcNAc(b1-3)Gal(b1-3)GalNAc
Outline: as §1

[35] = molecular target: Gal(b1-4)GlcNAc(b1-3)Gal(b1-3)GlcNAc
Outline: as §1

[36] = molecular target: Gal(b1-4)GlcNAc(b1-3)Gal(b1-4)Glc
Outline: as §1

[37] = molecular target: Gal(b1-4)GlcNAc(b1-3)Gal(b1-4)GlcNAc
Outline: as §1

[38] = molecular target: Gal(b1-4)GlcNAc(b1-3)Gal(b1-4)GlcNAc(b1-2)Man(a1-3)[Gal(b1-4)GlcNAc(b1-3)Gal(b1-4)GlcNAc(b1-2)Man(a1-6)]Man(b1-4)GlcNAc(b1-4)GlcNAc
Outline: as §1

[39] = molecular target: Gal(b1-4)GlcNAc(b1-3)Gal(b1-4)GlcNAc(b1-2)Man(a1-3)[Gal(b1-4)GlcNAc(b1-3)Gal(b1-4)GlcNAc(b1-2)Man(a1-6)]Man(b1-4)GlcNAc(b1-4)[Fuc(a1-6)]GlcNAc
Outline: as §1

B1: his-Lectin-24A (Drosophila melanogaster) (protein)
chain: MFRLSVLVLNLLLVSHEFSAGTAKIEIQPLPALCNGYCFPTLKPVMEYVAIHQDKWNTCTEILANEARKDQIQLNIQLDALKADVSNIKASQLSKDEKLDRMEREQFAMHESLETINRYLTVKLDRTKLQLEAIKNTMDYMKAQMDGYFSAINGVQCLQPGFEKIGDRYFYIEEDVELNWLDAQAKCRRMGGHLASIKTKQEFDAIVEKLDDSKSYFLGVNENTKTGDFVSAASGKSCLYHEWGPGEPHHNNDQERCVSILRKLMHVGNCTYEKRFICQYGI
glycan array binding signal (z-score) [1]: -0.999 | glycan array binding signal (z-score) (Gal(b1-3)GlcNAc6S): 1.62 | glycan array binding signal (z-score) [2]: 1.03 | glycan array binding signal (z-score) [3]: 0.254 | glycan array binding signal (z-score) [4]: 1.62 | glycan array binding signal (z-score) [5]: -0.619 | glycan array binding signal (z-score) [6]: -0.545 | glycan array binding signal (z-score) [7]: 2.34 | glycan array binding signal (z-score) [8]: 0.25 | glycan array binding signal (z-score) [9]: -0.786 | glycan array binding signal (z-score) [10]: -0.215 | glycan array binding signal (z-score) [11]: -0.581 | glycan array binding signal (z-score) (Gal(b1-4)Gal): 1.07 | glycan array binding signal (z-score) [12]: -0.55 | glycan array binding signal (z-score) [13]: -0.273 | glycan array binding signal (z-score) (Gal(b1-4)Glc): -0.232 | glycan array binding signal (z-score) (Gal(b1-4)Glc6S): 0.582 | glycan array binding signal (z-score) (Gal(b1-4)GlcNAc): -0.466 | glycan array binding signal (z-score) [14]: 0.567 | glycan array binding signal (z-score) (Gal(b1-4)GlcNAc(b1-2)Man): -0.691 | glycan array binding signal (z-score) [15]: 0.019 | glycan array binding signal (z-score) [16]: -0.222 | glycan array binding signal (z-score) [17]: -0.044 | glycan array binding signal (z-score) [18]: -1.92 | glycan array binding signal (z-score) [19]: -0.842 | glycan array binding signal (z-score) [20]: -0.152 | glycan array binding signal (z-score) [21]: -1.51 | glycan array binding signal (z-score) [22]: 0.001 | glycan array binding signal (z-score) [23]: 0.504 | glycan array binding signal (z-score) [24]: -0.222 | glycan array binding signal (z-score) [25]: 2.68 | glycan array binding signal (z-score) [26]: -0.462 | glycan array binding signal (z-score) [27]: -0.379 | glycan array binding signal (z-score) [28]: -1.25 | glycan array binding signal (z-score) [29]: -1.76 | glycan array binding signal (z-score) [30]: -0.553 | glycan array binding signal (z-score) [31]: 0.471 | glycan array binding signal (z-score) [32]: 0.134 | glycan array binding signal (z-score) [33]: -0.015 | glycan array binding signal (z-score) [34]: -0.9 | glycan array binding signal (z-score) [35]: 0.165 | glycan array binding signal (z-score) [36]: -0.367 | glycan array binding signal (z-score) [37]: 0.528 | glycan array binding signal (z-score) [38]: -0.705 | glycan array binding signal (z-score) [39]: -0.062
